Laboratory results: PubChem BioAssay AID1259405 (NCATS, 2018)
This is an unselected part of about 50,000 reagents. In the full data, about 4,000 (8%) are marked active. 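Mouse siRNA library applied to hamster cells; one well for each siRNA.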 Further read-outs or replicates are left out here. Reagent sequences are not shown.

Purpose: 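Mouse-designed siRNAs used to find CHO productivity engineering targets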 (primary screen)
Cell system: Chinese hamster CHO-K1 ovary cells with stable secreted eGFP expression
Knock-down reagent: single siRNA against mouse genes, 0.8 pmol siRNA per well (2 µl of 400 nM stock)
Duration: 3 days
Measurement: 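Per-well intracellular GFP measured by laser scanning cytometry, plus viability from ATP luminescence, each relative to plate median of non-targeting control wells, in %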
Direction: GFP, % of control: higher = more GFP per well, higher productivity
Active means: 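a knock-down is called active if GFP reaches 120% or more of non-targeting control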

GFP, % of control, by gene and reagent
Api5 (GeneID 11800): SID363546748 103 inactive; SID363548504 107 inactive; SID363560682 4.51 inactive
Slc18a1 (GeneID 110877): SID363574725 91.6 inactive; SID363575781 59.9 inactive; SID363580357 84.6 inactive
Zfp57 (GeneID 22715): SID363573694 87.7 inactive; SID363581438 68.8 inactive; SID363583902 63.8 inactive
Fbxo48 (GeneID 319701): SID363541759 70.8 inactive; SID363553351 53.6 inactive; SID363566675 8.6 inactive
Ackr3 (GeneID 12778): SID363571244 53.7 inactive; SID363571596 73.4 inactive; SID363571948 132 active
Hmbs (GeneID 15288): SID363569839 77.8 inactive; SID363576879 108 inactive; SID363578287 72 inactive
Cst8 (GeneID 13012): SID363573009 67.8 inactive; SID363577585 56.3 inactive; SID363581105 35.6 inactive
Or4c52 (GeneID 258790): SID363554259 69.6 inactive; SID363567706 66 inactive; SID363585063 66.5 inactive
Hnf1b (GeneID 21410): SID363573678 103 inactive; SID363581422 65.6 inactive; SID363583886 102 inactive
Galntl6 (GeneID 270049): SID363545247 95.5 inactive; SID363548760 62.5 inactive; SID363562566 72.8 inactive
Ccl24 (GeneID 56221): SID363582644 148 active; SID363584404 52 inactive
Krt79 (GeneID 223917): SID363572216 43.8 inactive; SID363573976 63.2 inactive

5 consecutive records already listed, quoted:
GFP, % of control, by gene and reagent
Fbxo48 (GeneID 319701): SID363553351 53.6 inactive; SID363566675 8.6 inactive
Ackr3 (GeneID 12778): SID363571244 53.7 inactive; SID363571596 73.4 inactive; SID363571948 132 active
